From the supplement of paper PMC8728848 come the findings set out here.

This is one part of the list.

Holding throughout (assay): glycan array binding signal (z-score within array); higher = stronger binding
Common to all, as to conditions: glycan notation: IUPAC condensed, linker removed

In test [1] the target is Gal(b1-4)GlcNAc(b1-3)Gal(b1-4)GlcNAc(b1-3)Gal(b1-4)GlcNAc(b1-3)Gal(b1-4)GlcNAc(b1-2)Man(a1-3)[Gal(b1-4)GlcNAc(b1-3)Gal(b1-4)GlcNAc(b1-3)Gal(b1-4)GlcNAc(b1-3)Gal(b1-4)GlcNAc(b1-2)Man(a1-6)]Man(b1-4)GlcNAc(b1-4)GlcNAc. In short, it runs like this:
(§1)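 From the Consortium for Functional Glycomics database, 3228 arrays were curated, keeping only those whose protein sequence was available. Binding is given as a within-array Z-score averaged across arrays sharing a protein sequence and across linkers. Negative Z-scores can be read as non-binding.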

The target of test [2] is Gal(b1-4)GlcNAc(b1-3)Gal(b1-4)GlcNAc(b1-3)Gal(b1-4)GlcNAc(b1-3)Gal(b1-4)GlcNAc(b1-2)Man(a1-3)[Gal(b1-4)GlcNAc(b1-3)Gal(b1-4)GlcNAc(b1-3)Gal(b1-4)GlcNAc(b1-3)Gal(b1-4)GlcNAc(b1-2)Man(a1-6)]Man(b1-4)GlcNAc(b1-4)[Fuc(a1-6)]GlcNAc. The gist of the method:
as §1

The target in test [3] is Gal(b1-4)GlcNAc(b1-3)Gal(b1-4)GlcNAc(b1-3)Gal(b1-4)GlcNAc(b1-3)Gal(b1-4)GlcNAc(b1-2)[Gal(b1-4)GlcNAc(b1-3)Gal(b1-4)GlcNAc(b1-3)Gal(b1-4)GlcNAc(b1-3)Gal(b1-4)GlcNAc(b1-6)]Man(a1-6)[Gal(b1-4)GlcNAc(b1-3)Gal(b1-4)GlcNAc(b1-3)Gal(b1-4)GlcNAc(b1-3)Gal(b1-4)GlcNAc(b1-2)Man(a1-3)]Man(b1-4)GlcNAc(b1-4)[Fuc(a1-6)]GlcNAc. The gist of the method: as §1
Test [4] addresses Gal(b1-4)GlcNAc(b1-3)Gal(b1-4)GlcNAc(b1-3)Gal(b1-4)GlcNAc(b1-3)Gal(b1-4)GlcNAc(b1-3)Gal(b1-4)GlcNAc(b1-2)Man(a1-3)[Gal(b1-4)GlcNAc(b1-3)Gal(b1-4)GlcNAc(b1-3)Gal(b1-4)GlcNAc(b1-3)Gal(b1-4)GlcNAc(b1-3)Gal(b1-4)GlcNAc(b1-2)Man(a1-6)]Man(b1-4)GlcNAc(b1-4)GlcNAc. The gist of the method: as §1
Test [5] addresses Gal(b1-4)GlcNAc(b1-3)Gal(b1-4)GlcNAc(b1-3)Gal(b1-4)GlcNAc(b1-3)Gal(b1-4)GlcNAc(b1-3)Gal(b1-4)GlcNAc(b1-2)Man(a1-3)[Gal(b1-4)GlcNAc(b1-3)Gal(b1-4)GlcNAc(b1-3)Gal(b1-4)GlcNAc(b1-3)Gal(b1-4)GlcNAc(b1-3)Gal(b1-4)GlcNAc(b1-2)Man(a1-6)]Man(b1-4)GlcNAc(b1-4)[Fuc(a1-6)]GlcNAc. The gist of the method:
as §1

Test [6] concerns the target Gal(b1-4)GlcNAc(b1-3)Gal(b1-4)GlcNAc(b1-3)Gal(b1-4)GlcNAc(b1-3)Gal(b1-4)GlcNAc(b1-3)Gal(b1-4)GlcNAc(b1-2)[Gal(b1-4)GlcNAc(b1-3)Gal(b1-4)GlcNAc(b1-3)Gal(b1-4)GlcNAc(b1-3)Gal(b1-4)GlcNAc(b1-3)Gal(b1-4)GlcNAc(b1-6)]Man(a1-6)[Gal(b1-4)GlcNAc(b1-3)Gal(b1-4)GlcNAc(b1-3)Gal(b1-4)GlcNAc(b1-3)Gal(b1-4)GlcNAc(b1-3)Gal(b1-4)GlcNAc(b1-2)Man(a1-3)]Man(b1-4)GlcNAc(b1-4)[Fuc(a1-6)]GlcNAc. The gist of the method:
as §1

For test [7], the target named is Gal(b1-4)GlcNAc(b1-3)Gal(b1-4)GlcNAc(b1-3)Gal(b1-4)GlcNAc(b1-3)Gal(b1-4)GlcNAc(b1-3)Gal(b1-4)GlcNAc(b1-3)Gal(b1-4)GlcNAc(b1-2)Man(a1-3)[Gal(b1-4)GlcNAc(b1-3)Gal(b1-4)GlcNAc(b1-3)Gal(b1-4)GlcNAc(b1-3)Gal(b1-4)GlcNAc(b1-3)Gal(b1-4)GlcNAc(b1-3)Gal(b1-4)GlcNAc(b1-2)Man(a1-6)]Man(b1-4)GlcNAc(b1-4)GlcNAc. The gist of the method: as §1
In test [8] the target is Gal(b1-4)GlcNAc(b1-3)Gal(b1-4)GlcNAc(b1-3)GalNAc. The gist of the method:
as §1

The target in test [9] is Gal(b1-4)GlcNAc(b1-3)Gal(b1-4)GlcNAc(b1-3)[Gal(b1-4)GlcNAc(b1-3)Gal(b1-4)GlcNAc(b1-6)]GalNAc. In short, it runs like this: as §1
Test [10] addresses Gal(b1-4)GlcNAc(b1-3)Gal(b1-4)GlcNAc(b1-6)[Gal(b1-3)]GalNAc. The gist of the method: as §1
The target in test [11] is Gal(b1-4)GlcNAc(b1-3)Gal(b1-4)[Fuc(a1-3)]GlcNAc(b1-3)Gal(b1-4)[Fuc(a1-3)]GlcNAc. In short, it runs like this: as §1
Test [12] concerns the target Gal(b1-4)GlcNAc(b1-3)GalNAc. The gist of the method: as §1
The target of test [13] is Gal(b1-4)GlcNAc(b1-3)[Fuc(a1-3)GlcNAc(b1-6)]Gal(b1-4)Glc. The gist of the method:
as §1

Test [14] deals with Gal(b1-4)GlcNAc(b1-3)[Gal(b1-4)GlcNAc(b1-6)]Gal(b1-4)GlcNAc. The gist of the method:
as §1

Test [15] has as its target Gal(b1-4)GlcNAc(b1-3)[GlcNAc(b1-6)]Gal(b1-4)GlcNAc. In short, it runs like this: as §1
Test [16] concerns the target Gal(b1-4)GlcNAc(b1-6)Gal(b1-4)GlcNAc. The gist of the method:
as §1

The target of test [17] is Gal(b1-4)GlcNAc(b1-6)GalNAc. The gist of the method: as §1
For test [18], the target named is Gal(b1-4)GlcNAc(b1-6)[Gal(b1-3)]GalNAc. In short, it runs like this: as §1
The target of test [19] is Gal(b1-4)GlcNAc(b1-6)[Gal(b1-4)GlcNAc(b1-3)]GalNAc. In short, it runs like this: as §1
Test [20] deals with Gal(b1-4)GlcNAc6P. The gist of the method: as §1
Test [21] has as its target Gal(b1-6)Gal. In short, it runs like this:
as §1

The target of test [22] is Gal3S(b1-3)GalNAc. The gist of the method: as §1
The target in test [23] is Gal3S(b1-3)GlcNAc. The gist of the method:
as §1

B1: CD34 (Homo sapiens), P28906 (protein)
chain: MGSSHHHHHHSSGLVPRGSHMSTSLATSPTKPYTSSSPILSDIKAEIKCSGIREVKLTQGICLEQNKTSSCAEFKKDRGEGLARVLCGEEQADADAGAQVCSLLLAQSEVRPQCLLLVLANRTEISSKLQLMKKHQSDLKKLGILDFTEQDVASHQSYSQKT
Consider B1, for which the “glycan array binding signal (z-score)” value in test [1] is -0.697; in [2] it was -0.22; in test [3] it was 0.423; in test [4], -0.161; in [5] it was -0.178; in test [6], -0.023. Besides, the “glycan array binding signal (z-score)” value was 0.838 in test [7]; 1.97 in test [8]; 0.532 in test [9]; -0.5 in test [10]; -0.847 in test [11]; -0.598 in test [12]. Besides, the “glycan array binding signal (z-score)” value in test [13] was 0.441; in test [14] it was -0.79; in test [15] it was 0.941; in test [16] it was 0.796; in [17], -0.125; in [18] it was 0.603. The “glycan array binding signal (z-score)” value in test [19] was -0.112; in test [20] it was 0.074; in [21] it was 1.66; in test [22], 0.776; in test [23], 0.293.
